These are yes or no findings as the source states them, for the method shown. Binding seen in cells or lysates may run through a third protein. Some binding calls cover weakened binding; strength is not graded here.
Columns and labels:
[1] = target: YFP-β-arrestin2 (wild type) (rat) (UniProt P29067); test: co-IP; HEK-293 cells co-expressing YFP-β-arrestin2 and 5-HT2C receptor, vehicle or 1 µM 5-HT; Erk1/2 blotted in the YFP-β-arrestin2 immunoprecipitates
[2] = target: YFP-β-arrestin2 Thr383Asp mutant (rat) (UniProt P29067); test: as above

Amino acid sequences for entries named in this document (tags omitted). A change or cut given only in a name is not applied to a line headed by its entry. Chains listed by the source or under a name are the forms on record and can include a tag or linker.
UniProt P29067: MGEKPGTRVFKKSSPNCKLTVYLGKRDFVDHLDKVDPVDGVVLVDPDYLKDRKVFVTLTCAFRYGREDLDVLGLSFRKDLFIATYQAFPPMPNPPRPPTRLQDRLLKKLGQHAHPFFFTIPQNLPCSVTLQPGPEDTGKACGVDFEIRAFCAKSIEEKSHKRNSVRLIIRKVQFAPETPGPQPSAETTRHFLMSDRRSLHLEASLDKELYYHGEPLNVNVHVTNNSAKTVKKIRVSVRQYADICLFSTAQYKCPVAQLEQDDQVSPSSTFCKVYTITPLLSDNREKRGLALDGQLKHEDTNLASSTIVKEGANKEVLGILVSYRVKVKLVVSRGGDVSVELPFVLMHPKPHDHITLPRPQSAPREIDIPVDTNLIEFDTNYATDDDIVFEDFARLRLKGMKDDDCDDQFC
YFP-β-arrestin2 Thr383Asp mutant (P29067, form named): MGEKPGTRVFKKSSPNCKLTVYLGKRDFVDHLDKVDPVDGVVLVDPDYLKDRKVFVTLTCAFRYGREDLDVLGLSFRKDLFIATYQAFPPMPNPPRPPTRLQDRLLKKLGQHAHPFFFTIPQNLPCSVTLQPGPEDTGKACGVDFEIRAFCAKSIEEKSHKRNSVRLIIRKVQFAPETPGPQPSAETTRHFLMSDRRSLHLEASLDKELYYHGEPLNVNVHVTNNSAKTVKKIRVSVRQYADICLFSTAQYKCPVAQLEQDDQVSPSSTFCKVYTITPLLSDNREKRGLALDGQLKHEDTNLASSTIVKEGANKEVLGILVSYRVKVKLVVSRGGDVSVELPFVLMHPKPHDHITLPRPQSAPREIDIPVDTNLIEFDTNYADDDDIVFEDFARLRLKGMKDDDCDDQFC
UniProt P28482: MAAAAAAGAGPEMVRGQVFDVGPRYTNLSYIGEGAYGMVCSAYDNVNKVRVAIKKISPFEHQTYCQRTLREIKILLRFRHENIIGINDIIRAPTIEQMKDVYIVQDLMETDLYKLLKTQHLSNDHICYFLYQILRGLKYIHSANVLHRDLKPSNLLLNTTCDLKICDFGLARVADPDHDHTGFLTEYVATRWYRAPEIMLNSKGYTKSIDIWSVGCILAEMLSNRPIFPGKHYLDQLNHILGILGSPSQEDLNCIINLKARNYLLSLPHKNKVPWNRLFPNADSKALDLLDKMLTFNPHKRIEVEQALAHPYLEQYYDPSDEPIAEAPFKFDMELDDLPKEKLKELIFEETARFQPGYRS
UniProt P27361: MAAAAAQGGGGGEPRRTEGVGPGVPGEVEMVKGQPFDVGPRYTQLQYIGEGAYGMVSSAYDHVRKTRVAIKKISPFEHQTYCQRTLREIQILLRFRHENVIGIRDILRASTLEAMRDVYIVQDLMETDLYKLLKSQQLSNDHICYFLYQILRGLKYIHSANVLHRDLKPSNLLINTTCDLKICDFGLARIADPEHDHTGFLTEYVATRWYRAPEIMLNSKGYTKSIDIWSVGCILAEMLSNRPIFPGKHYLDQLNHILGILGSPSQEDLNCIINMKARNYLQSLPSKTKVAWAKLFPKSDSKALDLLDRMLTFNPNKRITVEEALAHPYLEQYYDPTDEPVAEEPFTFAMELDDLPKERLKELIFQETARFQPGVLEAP

Extracellular signal-regulated kinase Erk2 (from UniProt P28482 1-360) (enzyme)
binding [1]: binds
binding [2]: binds

Extracellular signal-regulated kinase Erk1 (from UniProt P27361 1-379) (enzyme)
binding [1]: binds
binding [2]: binds

Reference: publication PMC5325621
